To fix the notation:
B1: Venus-tagged WT Rad (protein, UniProt O88667 1-308)
chain: MTLNGGSGASGSRGAGGRERDRRRGSTPWGPAPPLHRRSMPVDERDLQAALAPGSLATTAAGTRTQGQRLDWPEGSSDSLSSGGSGSEEGVYKVLLLGAPGVGKSALARIFGGIEDGPEAEAAGHTYDRSITVDGEEASLLVYDIWEEDGGCWLPGHCMAMGDAYVIVYSITDKGSFEKASELRVQLRRARQTDDVPIILVGNKSDLVRSREVSVDEGRACAVVFDCKFIETSAALHHNVQALFEGVVRQIRLRRDSKEDNARRQAGTRRRESLGKKAKRFLGRIVARNSRKMAFRAKSKSCHDLSVL
B2: Venus-tagged 4SA-Rad (protein, UniProt O88667 1-308)
chain: B1 chain with S26A, S39A, S273A, S301A
B3: Venus-tagged C-2SD Rad (protein, UniProt O88667 1-308)
chain: B1 chain with S273D, S301D
B4: Venus-tagged R208A/L235A Rad (protein, UniProt O88667 1-308)
chain: B1 chain with R209A, L236A
B5: Venus-tagged C-2SA Rad (protein, UniProt O88667 1-308)
chain: B1 chain with S273A, S301A
B6: Venus-tagged N-2SA Rad (protein, UniProt O88667 1-308)
chain: B1 chain with S26A, S39A
B7: Venus-tagged F280A/F294A Rad (protein, UniProt O88667 1-308)
chain: B1 chain with F281A, F295A

Positions count from the first letter of the chain named. Names and notes keep the numbering of the source. Results are given in words; binding and its absence hold for the method and conditions named. Binding seen in cells or lysates may run through a third protein. Binding calls can cover weak binding; strength is not graded here. Sequences can lack the tags named with a protein.

The target of this test is Cerulean-tagged CaVβ2B subunit (Cerulean-WT β2B) (human). The test can be described thus: FRET or BRET; flow cytometric FRET 2-hybrid assay in live HEK293T cells 1 day after transfection; Cerulean-β2B with Venus-tagged WT or mutant Rad; FRET efficiency against free Venus-Rad fitted with a 1:1 binding isotherm, relative dissociation constant K_d,EFF; cycloheximide 100 μM 2 hours before; cells untreated or treated with forskolin (10 or 50 μM), calyculin A (100 nM), both, or co-expressing PKAcat. In general terms: BRET reads energy transfer from a luciferase to a nearby fluorophore.
In the case of B1, the binding entry was “binds”.
As for B2, the binding entry is recorded as “binds”.
For the molecule B3, the binding result is recorded as “binds”.
As for B4, the binding result is recorded as “no binding”.
With B5, the binding entry is “binds”.
On to B6, for which the binding result is given as “binds”.
The entry for B7 is “binds”.

Source of the values: article PMC10904049.
